Measured values: PubChem BioAssay AID485353 (National Center for Advancing Translational Sciences (NCATS), 2010)
Screen size: about 330,000 compounds; about 610 (0.18%) were called active. Inconclusive results, whose numbers are uncertain, are shown with a selection of clear calls. Calls come from the whole dose curve. Where the call is inconclusive, the potency comes from a doubtful curve fit.

assay: qHTS of Yeast-based Assay for SARS-CoV PLP; note: nearly all actives have a fitted effect of over 55% in size; details: S. cerevisiae expressing SARS-CoV PLpro; Potency: growth rescue; series mostly up to 32.9 µM
Potency is the fitted concentration of half-maximal effect.

Question: Which Potency does the source give for `CCc1cccc2c(C(=O)CSc3nnc(-c4ccncc4)n3C)c[nH]c12` here?
Answer: Its Potency is “inactive”.

Question: Which Potency does the source give for `CCc1ccc(S(=O)(=O)NCc2cn3c(C)csc3n2)s1` here?
Answer: Its Potency is inconclusive: 11.2 µM [activator, partial curve].

Question: Which Potency does the source give for `Cc1nn(C(=O)c2nn(C)cc2[N+](=O)[O-])c(C)c1Cl` here?
Answer: The Potency was “inactive”.

Question: For `O=C(N=C1SC2CS(=O)(=O)CC2N1c1ccc(Cl)cc1)C1CCCO1` (centres undefined), which Potency is on record?
Answer: Its Potency is inconclusive: 3.98 µM [activator, single point].

Question: For `Cc1ccccc1NC(=O)c1cc2ccccn2n1`, which Potency is on record?
Answer: Its Potency is “inactive”.

Question: For `CC(=O)Nc1cccc(C(=O)OC(C)C(=O)NC(=O)NC2CCCCC2)c1` (centres undefined), which Potency is on record?
Answer: Its Potency is “inactive”.

Question: With `CCc1cc2c3c(c1)/C(=C1/SC(N)=NC1=O)C(=O)N3C(C)(C)C=C2C` as the molecule, how does the Potency read?
Answer: Its Potency is “inactive”.

Question: Which Potency does the source give for `Cc1ccc(-c2nnc(Nc3ccc(C(=O)N(C)C)cc3)c3ccccc23)cc1S(=O)(=O)NCC1CCCO1` (centres undefined) here?
Answer: The Potency was “inactive”.

Question: Which Potency does the source give for `COc1ccc(N(CC(O)Cn2c3ccccc3c3ccccc32)S(=O)(=O)c2ccccc2)cc1` (centres undefined) here?
Answer: Its Potency is “inactive”.

Question: Which Potency does the source give for `O=C(COc1ccc2ccccc2c1)NNC(=O)c1cnccn1` here?
Answer: Its Potency is “inactive”.

Question: With `COc1ccc(S(=O)(=O)N(c2onc(C)c2Cl)S(=O)(=O)c2ccc(OC)cc2)cc1` as the molecule, how does the Potency read?
Answer: The Potency was inconclusive: 11.2 µM [activator, single point].

Question: For `CN1C(=O)SC(Nc2ccccc2)C1=O` (centres undefined), which Potency is on record?
Answer: The Potency was active: 12.6 µM.

Question: With `Cc1ccc(F)c(CNC(=O)C2CCC(=O)N(Cc3ccccn3)C2)c1F` (centres undefined) as the molecule, how does the Potency read?
Answer: The Potency was inconclusive: 17.8 µM [activator, partial curve].

Question: For `COc1ccc(/C=C/C(=O)c2cc(Br)ccc(=O)c2O)cc1`, which Potency is on record?
Answer: The Potency was inconclusive: 3.98 µM [activator, single point].

Question: For `N#Cc1c2c(c(Nc3ccc(O)cc3)n3c1nc1ccccc13)CCC2`, which Potency is on record?
Answer: Its Potency is inconclusive: 3.98 µM [activator, partial curve, poor fit].

Question: Which Potency does the source give for `O=C(Oc1cccc(C(=S)N2CCOCC2)c1)c1cccc(Cl)c1` here?
Answer: Its Potency is inconclusive: 3.16 µM [activator, single point].

Question: For `Nc1ccccc1C(=O)NCc1ccc(Cl)cc1`, which Potency is on record?
Answer: The Potency was inconclusive: 11.2 µM [activator, partial curve].

Question: Which Potency does the source give for `Cc1nn(C)c(C)c1/C=C1/CC2C3CC=C4CC(O)CCC4(C)C3CCC2(C)C1=O` (centres undefined) here?
Answer: Its Potency is active: 12.6 µM.

Question: With `O=C1C2C3C=CC(C3)C2C(=O)N1c1ccccc1` (centres undefined) as the molecule, how does the Potency read?
Answer: Its Potency is inconclusive: 11.2 µM [activator, single point].

Question: For `COc1ccc(C/C(C)=N/NC(=S)Nc2ccc(C)c(C)c2)cc1`, which Potency is on record?
Answer: The Potency was inconclusive: 20 µM [activator, single point].

Question: Which Potency does the source give for `O=C(CSc1nccn1Cc1ccco1)Nc1ccccc1C(F)(F)F` here?
Answer: Its Potency is inconclusive: 3.55 µM [activator, single point].

Question: Which Potency does the source give for `NS(=O)(=O)c1ccc(CCNC(=O)c2cccnc2)cc1` here?
Answer: The Potency was inconclusive: 12.6 µM [activator, partial curve].

Question: With `Cc1cccc(N2CCN(C(=O)c3cc4n(n3)C(C(F)(F)F)CC(c3ccco3)N4)CC2)c1C` (centres undefined) as the molecule, how does the Potency read?
Answer: The Potency was inconclusive: 3.98 µM [activator, single point].

Question: Which Potency does the source give for `NC(=O)CSc1ncnc2c1oc1ccccc12` here?
Answer: Its Potency is “inactive”.

Question: With `COC(=O)c1cn(NC(=O)c2cnccn2)c(=O)c2ccccc12` as the molecule, how does the Potency read?
Answer: The Potency was inconclusive: 17.8 µM [activator, single point].

Question: Which Potency does the source give for `COCCNc1nnc(SCC(=O)NC(=O)c2ccccc2OC)s1` here?
Answer: Its Potency is inconclusive: 20 µM [activator, single point].

Question: Which Potency does the source give for `COc1ccc(N(CC(=O)NCCSCc2ccccc2C)S(=O)(=O)c2ccccc2)cc1` here?
Answer: Its Potency is inconclusive: 3.98 µM [activator, single point].

Question: With `O=C(Nc1cc([N+](=O)[O-])ccc1Cl)c1cccnc1` as the molecule, how does the Potency read?
Answer: The Potency was inconclusive: 1.26 µM [activator, partial curve].

Question: For `Cc1ccccc1CC1(CO)CCCN(C(=O)c2ccc(F)cc2)C1` (centres undefined), which Potency is on record?
Answer: The Potency was “inactive”.

Question: For `CCN(CC(=O)Nc1c(F)cccc1F)C(=O)C1(c2ccccc2)CC1`, which Potency is on record?
Answer: Its Potency is inconclusive: 3.98 µM [activator, single point].

Question: With `CCN(CC)C(=O)COc1ccc(C=O)cc1OC` as the molecule, how does the Potency read?
Answer: Its Potency is “inactive”.

Question: With `COc1ccc2c(CC(=O)Nc3cccc(S(=O)(=O)N4CCOCC4)c3)coc2c1` as the molecule, how does the Potency read?
Answer: Its Potency is “inactive”.

Question: With `C#CCOC(=O)/C(=C/c1ccc(F)cc1)NC(C)=O` as the molecule, how does the Potency read?
Answer: The Potency was inconclusive: 22.4 µM [activator, partial curve, poor fit].

Question: With `CC1CCc2cc(F)cc3c(O)c(C(=O)NCC4CCCO4)c(=O)n1c23` (centres undefined) as the molecule, how does the Potency read?
Answer: The Potency was inconclusive: 20 µM [activator, single point].

Question: For `CCOC(=O)c1c(NC(=O)CN2CCOCC2)sc2c1CCCC2=O`, which Potency is on record?
Answer: Its Potency is inconclusive: 17.8 µM [activator, single point].

Question: Which Potency does the source give for `O=C(CCCn1c(=O)[nH]c2cc(Cl)ccc2c1=O)N1CCC2(CC1)OCCO2` here?
Answer: Its Potency is inconclusive: 22.4 µM [activator, single point].

Question: Which Potency does the source give for `O=c1c2ccccc2nc(/C=C/c2ccccc2)n1-c1ccccc1O` here?
Answer: Its Potency is “inactive”.

Question: Which Potency does the source give for `COc1ccccc1NC(=O)Cn1cnc2c(nc3n2CCCCC3)c1=O` here?
Answer: Its Potency is inconclusive: 2.51 µM [activator, full curve, poor fit].

Question: With `CCC1(CC)C(=O)NN(c2ccccc2)C1=O` as the molecule, how does the Potency read?
Answer: The Potency was “inactive”.

Question: With `O=C(Nc1cccc(Cl)c1)N1CCN2C(=O)c3ccccc3C12c1ccccc1` (centres undefined) as the molecule, how does the Potency read?
Answer: Its Potency is inconclusive: 20 µM [activator, single point].

Question: For `CCOC(=O)Cc1csc(NC(=O)c2ccc(Br)cc2)n1`, which Potency is on record?
Answer: Its Potency is “inactive”.

Question: For `CC(C)Oc1ccccc1/C=N/NC(=O)C1CCCC1`, which Potency is on record?
Answer: Its Potency is “inactive”.

Question: With `Cc1ccc2[nH]c3c(=O)n(CCC4=CCCCC4)cnc3c2c1` as the molecule, how does the Potency read?
Answer: Its Potency is inconclusive: 3.98 µM [activator, single point].

Question: With `Nc1ncc(Br)cc1S(=O)(=O)NCCC(=O)N1CCN(c2ccccn2)CC1` as the molecule, how does the Potency read?
Answer: Its Potency is “inactive”.

Question: With `COc1cccc(-n2nnc3c(=O)n(CC(=O)OCc4ccccc4)cnc32)c1` as the molecule, how does the Potency read?
Answer: The Potency was inconclusive: 4.47 µM [activator, single point].

Question: For `Cc1ccc(N2CC(C(=O)NCCS(=O)(=O)N3CCN(c4ccccc4)CC3)CC2=O)cc1C` (centres undefined), which Potency is on record?
Answer: The Potency was “inactive”.

Question: For `COc1ccc(CNC(=O)COC(=O)Cc2ccc(Cl)cc2Cl)cc1`, which Potency is on record?
Answer: The Potency was inconclusive: 20 µM [activator, single point].

Question: With `O=C(O)CSc1ccccn1` as the molecule, how does the Potency read?
Answer: The Potency was inconclusive: 4.47 µM [activator, partial curve].

Question: For `O=C(/C=C/c1ccccc1)NC(=S)NNC(=O)Cc1cccs1`, which Potency is on record?
Answer: The Potency was “inactive”.

Question: For `Clc1cc(NC2CCCCC2)ncn1`, which Potency is on record?
Answer: Its Potency is inconclusive: 5.01 µM [activator, partial curve].

Question: Which Potency does the source give for `CC(C)C(=O)NC(Nc1ccc(S(N)(=O)=O)cc1)C(Cl)(Cl)Cl` (centres undefined) here?
Answer: Its Potency is inconclusive: 2.51 µM [activator, partial curve].

Question: Which Potency does the source give for `COc1ccc(Cc2nnc(SCC(=O)NC3CCCC3)o2)cc1` here?
Answer: The Potency was inconclusive: 3.55 µM [activator, single point].

Question: Which Potency does the source give for `CCn1c(CC(=O)Nc2ccccc2Cl)nnc1SCC(=O)NC1CCCC1` here?
Answer: The Potency was “inactive”.

Question: With `CC1(C)C2CC=C(CN3CCOCC3)C1C2` (centres undefined) as the molecule, how does the Potency read?
Answer: Its Potency is inconclusive: 2.82 µM [activator, single point].

Question: Which Potency does the source give for `CCN(c1cccc(C)c1)S(=O)(=O)c1cccc(C(=O)O)c1` here?
Answer: Its Potency is inconclusive: 4.47 µM [activator, partial curve].

Question: For `CCOc1cc(-c2nc(-c3ccc(OC)cc3)no2)cc(OCC)c1OCC`, which Potency is on record?
Answer: The Potency was inconclusive: 12.6 µM [activator, single point].

Question: With `Cc1ccc(-c2cc(C(=O)N/N=C/C=C/c3ccco3)c3ccccc3n2)cc1C` as the molecule, how does the Potency read?
Answer: Its Potency is inconclusive: 20 µM [activator, single point].

Question: For `COc1ccc(N(CN2C(=O)C3CC=CCC3C2=O)C(=O)c2ccco2)cc1` (centres undefined), which Potency is on record?
Answer: Its Potency is inconclusive: 3.16 µM [activator, single point].

Question: With `CC1CCN(C(=O)COC(=O)c2ccccc2C(=O)c2ccccc2)CC1` as the molecule, how does the Potency read?
Answer: Its Potency is “inactive”.

Question: With `C=CCOc1c(CNc2cccc(C(=O)O)c2)cccc1OCC` as the molecule, how does the Potency read?
Answer: The Potency was “inactive”.

Question: With `COc1nnc(-c2ccc(C(=O)N3C[C@@H]4C[C@H](C3)c3cccc(=O)n3C4)cc2)c2ccccc12` as the molecule, how does the Potency read?
Answer: The Potency was “inactive”.

Question: Which Potency does the source give for `CCOC(=O)c1ccccc1N=N/C(C(C)=O)=C(/C)O` here?
Answer: Its Potency is inconclusive: 20 µM [activator, single point].

Question: Which Potency does the source give for `O=C(Nc1ccc(N2CCCC2)cc1)C(Cl)c1ccccc1` (centres undefined) here?
Answer: The Potency was inconclusive: 2.82 µM [activator, partial curve].

Question: For `CCOc1cc(/C=N/NC(=O)c2ccccn2)ccc1OC(=O)c1cccs1`, which Potency is on record?
Answer: Its Potency is inconclusive: 15.8 µM [activator, single point].

Question: Which Potency does the source give for `Cc1c(-c2ccccc2)sc2nc[nH]c(=S)c12` here?
Answer: Its Potency is inconclusive: 8.91 µM [activator, partial curve].

Question: For `CCOC(=O)c1sc(NC(=O)c2ccco2)nc1C`, which Potency is on record?
Answer: Its Potency is inconclusive: 4.47 µM [activator, single point].

Question: Which Potency does the source give for `O=C(Oc1ccc2ccc(=O)oc2c1)c1cccs1` here?
Answer: Its Potency is inconclusive: 14.1 µM [activator, partial curve].

Question: For `O=C(Cn1nnc2ccccc21)c1ccccc1`, which Potency is on record?
Answer: The Potency was “inactive”.

Question: Which Potency does the source give for `CCOc1ccc(NC(=O)[C@@H](NC(=O)c2ccccc2Br)C(C)C)cc1` here?
Answer: The Potency was “inactive”.

Question: Which Potency does the source give for `O=C1C=CC(=O)N1Nc1ccc(Br)cc1` here?
Answer: The Potency was inconclusive: 4.47 µM [activator, single point].

Question: Which Potency does the source give for `Cn1c(=O)c(Oc2ccc(Cl)cc2)c(O)c2ccccc21` here?
Answer: The Potency was inconclusive: 22.4 µM [activator, partial curve, poor fit].

Question: For `CN(C)c1ccc(C(=O)N2CCNC(=O)C2CC(=O)Nc2ccc(F)cc2)cc1` (centres undefined), which Potency is on record?
Answer: Its Potency is inconclusive: 4.47 µM [activator, single point].

Question: For `Cc1ccc(OCC(=O)N(Cc2ccccc2)c2c(N)n(Cc3ccccc3)c(=O)[nH]c2=O)c(C)c1`, which Potency is on record?
Answer: Its Potency is “inactive”.

Question: Which Potency does the source give for `Cc1ccc2[nH]c(=S)cc(C)c2c1` here?
Answer: The Potency was active: 22.4 µM.
